Experimental data taken from patent US20240115721A1.

Molecular target: Histidine-tagged DLL3 antigen (DLL3-His) (Homo sapiens (Human))
Assay: Carterra array SPR epitope binning with DLL3-His

B1: 2-C8-A (antibody, V domains shown)
VH: EVQLVESGGGLVQPGGSQRLSCAASGFTFSSYWMNWVRQAPGKGLEWVANIKEDGSEKYYVDSVKGRFTISRDNAKNSLYLQMNSLRAEDTAVYYCARDPGWAPFDYWGQGTLVTVSS
VL: DIQMSQSPSSLSASVGDRVTITCRASQGISNYLAWFQQKPGKAPKSLIYAASSLQSGVPSKFSGSGSGTDFTLAISSLQPEDFATYYCQQYNSFPYTFGQGTTLEIK
  binding: binds

No constants are given. Whether binding was seen depends on the method and setting. Binding can be weak; no strength is given.
